These are yes or no findings as the source states them, for the method shown. In cells and extracts the contact can be indirect. Some binding calls cover weakened binding; strength is not graded here.

By UniProt entry, the sequences of proteins in these tests, tags left out. Where a name states a change or a piece, a line headed by the entry shows the natural chain unless it says otherwise.
UniProt Q61616: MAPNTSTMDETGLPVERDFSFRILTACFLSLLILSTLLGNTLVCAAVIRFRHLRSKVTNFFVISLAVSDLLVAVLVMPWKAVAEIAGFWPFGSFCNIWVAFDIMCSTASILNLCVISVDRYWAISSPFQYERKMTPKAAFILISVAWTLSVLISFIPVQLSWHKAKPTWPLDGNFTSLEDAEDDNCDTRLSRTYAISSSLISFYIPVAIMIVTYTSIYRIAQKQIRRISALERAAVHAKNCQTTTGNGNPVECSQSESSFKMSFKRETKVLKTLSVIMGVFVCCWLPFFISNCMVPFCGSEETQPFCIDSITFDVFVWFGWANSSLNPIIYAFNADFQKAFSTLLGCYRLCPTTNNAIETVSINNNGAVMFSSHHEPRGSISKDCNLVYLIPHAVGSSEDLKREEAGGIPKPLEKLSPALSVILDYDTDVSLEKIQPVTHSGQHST
UniProt Q99MK8: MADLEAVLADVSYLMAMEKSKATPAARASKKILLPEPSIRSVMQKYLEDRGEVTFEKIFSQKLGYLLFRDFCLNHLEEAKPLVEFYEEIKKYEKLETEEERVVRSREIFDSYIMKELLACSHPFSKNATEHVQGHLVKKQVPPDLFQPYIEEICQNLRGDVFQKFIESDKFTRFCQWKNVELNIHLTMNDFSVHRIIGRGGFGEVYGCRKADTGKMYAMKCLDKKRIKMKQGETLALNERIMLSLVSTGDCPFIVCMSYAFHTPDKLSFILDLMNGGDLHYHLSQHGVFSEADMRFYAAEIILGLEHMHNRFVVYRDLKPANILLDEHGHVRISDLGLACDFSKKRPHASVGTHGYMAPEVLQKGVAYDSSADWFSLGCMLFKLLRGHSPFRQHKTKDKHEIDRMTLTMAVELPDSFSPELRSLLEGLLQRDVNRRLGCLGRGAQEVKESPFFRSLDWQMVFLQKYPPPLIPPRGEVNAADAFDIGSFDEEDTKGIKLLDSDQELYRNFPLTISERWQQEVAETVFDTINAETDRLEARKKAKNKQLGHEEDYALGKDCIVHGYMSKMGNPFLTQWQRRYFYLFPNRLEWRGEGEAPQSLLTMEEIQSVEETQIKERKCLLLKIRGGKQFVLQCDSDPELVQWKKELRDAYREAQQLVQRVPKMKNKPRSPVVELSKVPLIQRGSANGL

This assay deals with Dopamine D1 receptor (D1R), mouse (mouse (endogenous in striatum)) (UniProt Q61616). Description: co-IP; striatal tissue of 6-month-old WT and FMRP-P608L mice in RIPA buffer; immunoprecipitated by anti-D1R, western blot for GRK2. In general terms: Immunoblotting shows a protein as a band on a membrane.

For the sequence “G protein-coupled receptor kinase 2 (GRK2), mouse (from UniProt Q99MK8 1-689) (enzyme)”, the binding result is “binds”.

These data come from publication PMC12448934.
